These are yes or no findings as the source states them, for the method shown. Binding seen in cells or lysates may run through a third protein. These calls come from enrichment with a bait or labelling near it, and not all partners need be listed. For part of these data: No binding means not detected with the bait. Where a sequence is shown, tags or fusion partners need not be part of it.
T1: Red1-3×FLAG (S. pombe) (UniProt Q9UTR8)
T1 sequence: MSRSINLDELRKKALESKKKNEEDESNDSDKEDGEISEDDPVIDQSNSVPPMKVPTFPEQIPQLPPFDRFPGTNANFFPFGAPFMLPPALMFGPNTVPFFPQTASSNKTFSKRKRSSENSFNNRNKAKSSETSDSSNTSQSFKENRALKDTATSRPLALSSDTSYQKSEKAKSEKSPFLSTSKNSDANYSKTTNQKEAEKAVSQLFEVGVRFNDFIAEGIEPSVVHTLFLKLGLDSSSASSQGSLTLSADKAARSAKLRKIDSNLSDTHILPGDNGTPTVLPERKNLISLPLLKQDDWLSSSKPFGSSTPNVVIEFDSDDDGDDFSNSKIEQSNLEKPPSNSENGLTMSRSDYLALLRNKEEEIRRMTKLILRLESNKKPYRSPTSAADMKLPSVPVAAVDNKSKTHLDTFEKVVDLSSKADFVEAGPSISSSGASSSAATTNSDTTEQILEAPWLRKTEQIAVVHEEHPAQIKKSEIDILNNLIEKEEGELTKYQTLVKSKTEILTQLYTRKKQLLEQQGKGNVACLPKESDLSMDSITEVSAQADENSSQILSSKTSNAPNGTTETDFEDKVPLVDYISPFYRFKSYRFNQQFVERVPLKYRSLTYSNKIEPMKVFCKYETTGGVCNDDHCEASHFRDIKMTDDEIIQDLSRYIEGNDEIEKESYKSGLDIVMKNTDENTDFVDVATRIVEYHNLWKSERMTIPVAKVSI

T2: Ars2-3×FLAG (S. pombe) (UniProt O94326)
T2 sequence: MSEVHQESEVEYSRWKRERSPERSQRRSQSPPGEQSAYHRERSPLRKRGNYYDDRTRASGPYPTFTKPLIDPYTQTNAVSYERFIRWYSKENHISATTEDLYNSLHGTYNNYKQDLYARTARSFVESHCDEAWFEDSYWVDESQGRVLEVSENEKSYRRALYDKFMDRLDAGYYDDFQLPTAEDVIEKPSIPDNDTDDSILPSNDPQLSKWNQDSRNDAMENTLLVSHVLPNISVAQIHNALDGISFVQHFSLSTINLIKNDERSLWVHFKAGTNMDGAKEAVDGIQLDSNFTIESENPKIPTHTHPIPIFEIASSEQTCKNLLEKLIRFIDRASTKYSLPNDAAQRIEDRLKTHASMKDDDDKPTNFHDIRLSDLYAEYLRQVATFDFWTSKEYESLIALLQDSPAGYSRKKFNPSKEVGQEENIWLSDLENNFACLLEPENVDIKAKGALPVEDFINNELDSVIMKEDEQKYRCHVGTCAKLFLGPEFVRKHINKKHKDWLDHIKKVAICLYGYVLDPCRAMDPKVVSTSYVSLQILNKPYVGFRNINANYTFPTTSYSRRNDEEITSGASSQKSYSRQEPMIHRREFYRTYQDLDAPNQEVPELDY

T3: Red5-3×FLAG (S. pombe) (UniProt O74823)
T3 sequence: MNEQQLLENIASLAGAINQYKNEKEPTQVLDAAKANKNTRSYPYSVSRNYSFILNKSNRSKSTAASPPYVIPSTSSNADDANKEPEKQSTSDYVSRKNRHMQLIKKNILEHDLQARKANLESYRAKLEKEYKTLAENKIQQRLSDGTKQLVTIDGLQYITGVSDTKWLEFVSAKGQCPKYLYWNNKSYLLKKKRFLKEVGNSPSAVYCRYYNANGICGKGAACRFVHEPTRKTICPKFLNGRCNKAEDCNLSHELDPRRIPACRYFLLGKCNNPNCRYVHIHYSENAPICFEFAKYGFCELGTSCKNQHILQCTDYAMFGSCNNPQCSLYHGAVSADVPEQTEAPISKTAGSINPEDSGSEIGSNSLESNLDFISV


How the values were obtained:
Experiment in all cases: affinity purification with mass spectrometry; 3×FLAG- or 13×myc-tagged bait purified from S. pombe cell extract on α-FLAG (M2) or α-myc (9E10) antibody cross-linked to Protein G Dynabeads, 4°C for 3 h, IP buffer (20 mM HEPES pH 7.5, 100 mM NaCl, 5 mM MgCl2, 1 mM EDTA, 10% glycerol, 0.25% Triton X-100, 0.5 mM DTT); LC-MS/MS; Red1-3×FLAG also from iss10Δ, rmn1Δ and Mtl1 knockdown cells
Red1-3×FLAG (S. pombe) = target: T1, Red1-3×FLAG (S. pombe)
Ars2-3×FLAG (S. pombe) = target: T2, Ars2-3×FLAG (S. pombe)
Red5-3×FLAG (S. pombe) = target: T3, Red5-3×FLAG (S. pombe)

binding (Red1-3×FLAG (S. pombe)) | binding (Ars2-3×FLAG (S. pombe)) | binding (Red5-3×FLAG (S. pombe)) | Binder
binds | binds | no binding | Pla1 (protein, UniProt Q10295 1-566) MTTKQWGITPPISTAPATEQENALNTALINELKNQNLFESPAESEKRVKVLDELQQITTEFVKKVSLAKHMNEKMANEAGGKIFTYGSYRLGVYGPGSDIDTLVVVPKHVSRDNFFQDLEPMLREREEVTDLAAVPDAYVPIIKFKFLGISIDLIFARLSVPRVPRDLELSDNNLLKGVEERCVLSLNGTRVTDQILQLVPNRAVFKHALRAIKFWAQRRAIYANVVGFPGGVAWAMMVARICQLYPNAVSSVIVAKFFRILHQWNWPQPILLKPIEDGPLQVRIWNPKLYPSDKAHRMPIITPAYPSMCATHNITLSTQTIILREMVRAGEIADQIMVKALPWSALFQKHDFFHRYKHYLTITAAAKTAEAQLKWAGLVESKLRHLVTRLELVDAIALAHPFNKGFDKVYNCSSEEEAQQVASGVTLEVAYESTDHEKLANDTVNEEKADNTESKADGSENGEKQIFPVYTTTCYIGLELEKKKGHPIKRLDISWPTQEFYELCKKWDKYDDTLMNVFIKNTKNTALPDEVFEPGEERPKATKKRSTADTAHSTEQLKRQKVSTA
binds | binds | binds | Pab2 (protein, UniProt O14327 1-166) MSDQDALDTQEKELLEMKERVAEMEAEAAKLRAMQEQLDNETEALRNDKESIDAQSVYVGNVDYSVTPEELQSHFASCGSVNRVTILCDKFTGHPKGFAYIEFSEPSLVPNALLLNGSMLHERPLKVTPKRTNVPGMSRGRGRGRGRGRGRGRGGYRGRARGFAPY

Source: article PMC4024641
